According to patent US9199941B2, “Pyrazole indanyl carboxamides” (BAYER CROPSCIENCE AG, priority 2012, dated 2015):

Experiment: log P by HPLC on reversed phase columns (EEC directive 79/831 Annex V.A8)
Type: physicochemical
Conditions: Table 1, compounds of formula (I); method [a]: LC-MS at pH 2.7, 0.1% formic acid in water / acetonitrile

With CC(C)CC1CC(C)c2c(NC(=S)c3cn(C)nc3C(F)F)cccc21 (stereo not shown) [Example 44] the logP was 4.61[a].
